Experimental data: patent US20110034528A1, “Elansolids, Novel Natural Metabolites of Flexibacter and Antibiotically Active Derivatives Thereof” (priority 2008, published 2011)
For at least one compound, name, drawing or mass did not settle the structure.

System: pathogens
Assay: MIC values of elansolid derivatives (Table 9)
Format: cell-based

CC(C=CC(=O)O)=CCC(O)C(C)C(O)C=CC=CC=CC1C(C)=CC2C(C1C(Nc1ccc(C(=O)O)cc1)c1ccc(O)cc1)C(C)(C)CC2(C)O (mixture of isomers) [Elansolid 082-21]
Minimal inhibition concentration [MIC] Micrococcus luteus (Micrococcus luteus): E (E = 0.4 μg/ml) | Minimal inhibition concentration [MIC] Streptococcus faecalis (Streptococcus faecalis): A (A = 6.7 — μg/ml)
